{
  "source": "patent US20060223888A1",
  "about": "“Valproic acid analogues and pharmaceutical composition thereof” (priority 2002, published 2006)",
  "data": [
    {"test_system": "PTZ-induced seizures", "experiment": "ED50 against PTZ-induced seizures, i.p.", "assay_type": "in vivo", "details": "male Sprague-Dawley rats (n = 8)", "from_the_text": "These compounds were investigated for anticonvulsant activity in mice^13 and rats (see results in Table 4) and found to be equivalent in potency to VPA.", "values": [
      {"smiles": "C/C=C\\C(=C/CC)C(=O)[O-].[Na+]", "note": "[325073A, Sodium (2E)-2-[(1Z)-prop-1-en-1-yl]pent-2-enoate]", "SLOPE of the log dose-response plot": "1.2 (0.8-1.8)"},
      {"smiles": "CCCC(CCC)C(=O)[O-].[Na+]", "note": "[332059A, Sodium 2-propylpentanoate, reference compound]", "SLOPE of the log dose-response plot": "1.2 (1.1-1.3)"},
      {"smiles": "CCC=C(CCC)C(=O)O", "note": "[(E)-2-ene VPA, 2-propylpent-2-enoic acid]", "SLOPE of the log dose-response plot": "1.2 (1.0-1.3)"}
    ]}
  ]
}
